According to patent publication US8637521B2, “Substituted piperazin-2,5-diones and their use as multifunctional bioactive compounds” (priority 2006, dated 2014):
At least one compound was matched to its structure with a doubt left.

Experiments:
mice F1(CBAxC57D16) = assay: Analgesic activity, tail flick test, water 48° C., intraperitoneal; type: in vivo; settings: Table 10; for Initial sensitivity level: before injection
Procedure: Two hundred and twenty mice F1(CBAxC57D16) first generation hybrids were used for testing of analgesic activity using the “tail flick” test. The water temperature was at 48° C. The maximal effect was for the period of 30 seconds. All peptides were injected intraperitoneally in the doses of 5, 10 or 20 mg/kg. Analgesic effect was estimated in the time interval of 15 to 120 min after peptide injection. Student's t-criterion was used for statistical calculations of the results. Statistical significance were at the level of p≦0.05.

BALB/c male mice = assay: Antinociceptive activity, tail flick test with heat radiation, intragastral or intraperitoneal; type: in vivo
Procedure: For estimation of oral activity of novel cyclopeptides of the present invention, the “tail flick” test was used. The results were compared with those obtained using intraperitoneal administration.
Antinociceptive activity of the peptides of the present invention was assessed in experiments on BALB/c male mice weighing 22 to 24 g. The peptides were dissolved in saline and administered intraperitoneally or intragastrally.
The “Tail flick” test (D'Amour, F. E. et al. “A Method for Determining Loss of Pain Sensation”, J. Pharmacol. Exp. Ther., Vol. 72, Pages 74 to 79, 1941) was performed on an analgesimeter type 812, Hugo Sachs Electronick KG. Antinociceptive activity was defined as the absence of tail flick response on stimulation with a focused bundle of heat radiation with 6 sec at baseline response of 2.0-3.0 seconds.
Statistical treatment of the results was carried out by the Student's paired t-test.

Structure (SMILES): C[C@@H](NC(=O)[C@@H](N)Cc1ccc(O)cc1)C(=O)N[C@@H](Cc1ccccc1)C(=O)NCC(=O)N[C@@H](Cc1ccc(O)cc1)C(=O)N1CCC[C@H]1C(=O)N[C@@H](CO)C(N)=O [Compound 48, H-Tyr-D-Ala-Phe-Gly-Tyr-Pro-Ser-NH2, reference compound]
- Initial sensitivity level (mice F1(CBAxC57D16); 5 mg/kg group): 3.6 ± 0.2 s
- Effect duration (mice F1(CBAxC57D16); 5 mg/kg i.p., 15 min after injection): 11.0 ± 1.0 s
- Effect duration (mice F1(CBAxC57D16); 5 mg/kg i.p., 30 min): 14.4 ± 3.0 s
- Effect duration (mice F1(CBAxC57D16); 5 mg/kg i.p., 45 min): 17.2 ± 2.4 s
- Effect duration (mice F1(CBAxC57D16); 5 mg/kg i.p., 60 min): 13.2 ± 3.2 s
- Effect duration (mice F1(CBAxC57D16); 5 mg/kg i.p., 90 min): 4.7 ± 0.3 s
- Initial sensitivity level (mice F1(CBAxC57D16); 10 mg/kg group): 4.4 ± 0.3 s
- Effect duration (mice F1(CBAxC57D16); 10 mg/kg i.p., 15 min): 11.7 ± 1.0 s
- Effect duration (mice F1(CBAxC57D16); 10 mg/kg i.p., 30 min): 16.6 ± 2.2 s
- Effect duration (mice F1(CBAxC57D16); 10 mg/kg i.p., 45 min): 17.0 ± 2.3 s
- Effect duration (mice F1(CBAxC57D16); 10 mg/kg i.p., 60 min): 10.2 ± 1.2 s
- Effect duration (mice F1(CBAxC57D16); 10 mg/kg i.p., 90 min): 3.9 ± 0.2 s
- Initial sensitivity level, mean (BALB/c male mice; Table 11, oral 50 mg/kg group, before administration): 2.2 ± 0.1 s
- Effect duration (BALB/c male mice; Table 11, oral 50 mg/kg, 15 min, cut-off 6 sec): 2.4 ± 0.1 s
- Effect duration (BALB/c male mice; Table 11, oral 50 mg/kg, 30 min): 2.3 ± 0.1 s
- Effect duration (BALB/c male mice; Table 11, oral 50 mg/kg, 60 min): 2.3 ± 0.1 s
- Effect duration (BALB/c male mice; Table 11, oral 50 mg/kg, 90 min): 3.4 ± 0.5 s
- Initial sensitivity level, mean (BALB/c male mice; Table 12, intraperitoneal 10 mg/kg group, before injection): 2.2 ± 0.2 s
- Effect duration (BALB/c male mice; Table 12, intraperitoneal 10 mg/kg, 15 min, cut-off 6 sec): 5.6 ± 0.4 s
- Effect duration (BALB/c male mice; Table 12, intraperitoneal 10 mg/kg, 30 min): 6.0 ± 0 s
